Results are given in words; binding and its absence hold for the method and conditions named. Some entries that bind do so weakly or less than the wild type. Sequences can lack the tags named with a protein.
T1: Human full-length (FL) NPR-C (27–541)-10His-Flag (human) (UniProt P17342)
T1 sequence: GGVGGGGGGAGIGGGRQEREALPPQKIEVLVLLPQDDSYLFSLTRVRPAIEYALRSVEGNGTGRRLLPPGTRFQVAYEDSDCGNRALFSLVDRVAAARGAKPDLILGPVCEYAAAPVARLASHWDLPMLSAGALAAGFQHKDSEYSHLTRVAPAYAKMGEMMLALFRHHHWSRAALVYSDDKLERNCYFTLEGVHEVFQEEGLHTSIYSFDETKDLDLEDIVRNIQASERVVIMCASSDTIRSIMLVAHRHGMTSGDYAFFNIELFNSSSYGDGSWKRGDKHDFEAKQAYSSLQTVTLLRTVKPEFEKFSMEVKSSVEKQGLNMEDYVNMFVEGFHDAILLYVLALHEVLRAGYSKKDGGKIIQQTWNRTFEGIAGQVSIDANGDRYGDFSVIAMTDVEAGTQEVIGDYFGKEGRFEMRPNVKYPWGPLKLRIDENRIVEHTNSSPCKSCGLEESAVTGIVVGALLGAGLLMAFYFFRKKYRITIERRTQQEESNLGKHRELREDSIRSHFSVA

T2: extracellular domain (ECD) NPR-C (27–481)-6His (human) (UniProt P17342)
T2 sequence: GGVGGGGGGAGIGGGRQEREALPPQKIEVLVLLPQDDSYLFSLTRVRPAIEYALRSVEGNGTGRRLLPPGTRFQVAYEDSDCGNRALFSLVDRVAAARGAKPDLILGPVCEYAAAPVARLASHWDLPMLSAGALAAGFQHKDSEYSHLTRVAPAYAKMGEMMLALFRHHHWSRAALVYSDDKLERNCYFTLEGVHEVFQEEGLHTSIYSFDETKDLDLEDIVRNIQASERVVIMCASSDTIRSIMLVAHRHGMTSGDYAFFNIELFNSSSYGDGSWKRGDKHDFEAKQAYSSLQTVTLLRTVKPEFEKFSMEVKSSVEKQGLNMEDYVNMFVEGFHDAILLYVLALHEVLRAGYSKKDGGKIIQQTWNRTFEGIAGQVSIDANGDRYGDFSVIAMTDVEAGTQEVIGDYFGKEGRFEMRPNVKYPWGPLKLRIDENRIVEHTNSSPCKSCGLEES

T3: 5-carboxyfluorescein N-terminus labelled GLSKG[…]NS (Flu-P19)
T3 sequence (peptide, 5-carboxyfluorescein on the N-terminus): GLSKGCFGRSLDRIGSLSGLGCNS


How the values were obtained:
[1] = biological target: T1, Human full-length (FL) NPR-C (27–541)-10His-Flag (human); assay: fluorescence polarisation; competition against 15 nM Flu-P19 probe; FL NPR-C 150 nM or ECD NPR-C 400 nM; competitor 4.89 nM-2.5 uM; HEPES buffer, 3% DMSO; Ki computed from IC50 with a web-based converter; both purified
[2] = biological target: T2, extracellular domain (ECD) NPR-C (27–481)-6His (human); assay: as above
[3] = biological target: T3, 5-carboxyfluorescein N-terminus labelled GLSKG[…]NS (Flu-P19); assay: fluorescence polarisation; protein titration (0.12-500 nM NPR-C) at 15 nM Flu-P19 probe; HEPES buffer, 3% DMSO, 80 ul; both purified
[4] = biological target: T1, Human full-length (FL) NPR-C (27–541)-10His-Flag (human); assay: non-reducing SDS-PAGE; 10%-20% Tris-Glycine gel, protein loaded under reducing or non-reducing conditions; shows disulphide-bonded dimers only; both purified

| binding [1] | binding [2] | binding [3] | binding [4] | Binder |
| --- | --- | --- | --- | --- |
| binds | binds | – | – | GLSKGCFGRSLDRIGSLSGLGCNS (5-carboxyfluorescein on the N-terminus) [5-carboxyfluorescein N-terminus labelled GLSKG[…]NS (Flu-P19)] |
| – | – | binds | binds | Human full-length (FL) NPR-C (27–541)-10His-Flag (receptor, UniProt P17342-2 27-540) GGVGGGGGGAGIGGGRQEREALPPQKIEVLVLLPQDDSYLFSLTRVRPAIEYALRSVEGNGTGRRLLPPGTRFQVAYEDSDCGNRALFSLVDRVAAARGAKPDLILGPVCEYAAAPVARLASHWDLPMLSAGALAAGFQHKDSEYSHLTRVAPAYAKMGEMMLALFRHHHWSRAALVYSDDKLERNCYFTLEGVHEVFQEEGLHTSIYSFDETKDLDLEDIVRNIQASERVVIMCASSDTIRSIMLVAHRHGMTSGDYAFFNIELFNSSSYGDGSWKRGDKHDFEAKQAYSSLQTVTLLRTVKPEFEKFSMEVKSSVEKQGLNMEDYVNMFVEGFHDAILLYVLALHEVLRAGYSKKDGGKIIQQTWNRTFEGIAGQVSIDANGDRYGDFSVIAMTDVEAGTQEVIGDYFGKEGRFEMRPNVKYPWGPLKLRIDENRIVEHTNSSPCKSCGLEESAVTGIVVGALLGAGLLMAFYFFRKKYRITIERRTQQEESNLGKHRELREDSIRSHFSVA |

Source: paper PMC6879014, “Biophysical screening methods for extracellular domain peptide receptors, application to natriuretic peptide receptor C ligands” (Chemical Biology & Drug Design, 2018)
